Paper PMC6662554
These are yes or no findings as the source states them, for the method shown. Binding can be weak; no strength is given. For part of these data: Sequences can lack the tags named with a protein. For part of these data: Binding seen in cells or lysates may run through a third protein.

Assays:
NeYFP-Delta-COP2 (rice) = molecular target: T1, NeYFP-Delta-COP2 (rice) (UniProt Q0DJ99); test: split reporter; BiFC: CeYFP-SPL35 with NeYFP fusions in N. benthamiana leaf epidermis cells, eYFP signal 48 h after infiltration
T1 sequence: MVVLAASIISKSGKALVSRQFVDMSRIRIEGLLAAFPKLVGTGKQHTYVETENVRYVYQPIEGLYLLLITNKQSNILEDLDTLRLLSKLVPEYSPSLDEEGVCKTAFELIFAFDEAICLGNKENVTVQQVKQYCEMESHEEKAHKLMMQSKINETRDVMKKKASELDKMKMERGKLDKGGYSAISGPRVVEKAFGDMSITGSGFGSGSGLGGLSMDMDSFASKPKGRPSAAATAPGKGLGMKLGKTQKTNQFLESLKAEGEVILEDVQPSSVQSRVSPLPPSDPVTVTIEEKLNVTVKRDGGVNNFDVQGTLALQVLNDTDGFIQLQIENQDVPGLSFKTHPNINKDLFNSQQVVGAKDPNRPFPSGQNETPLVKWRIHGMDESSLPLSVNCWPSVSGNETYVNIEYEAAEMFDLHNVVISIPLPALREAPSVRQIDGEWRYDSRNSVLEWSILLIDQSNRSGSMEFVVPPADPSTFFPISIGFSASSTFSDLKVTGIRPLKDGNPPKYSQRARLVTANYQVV

NeYFP-Delta-COP1 (rice) = molecular target: T2, NeYFP-Delta-COP1 (rice) (UniProt Q0DJA0); test: as above
T2 sequence: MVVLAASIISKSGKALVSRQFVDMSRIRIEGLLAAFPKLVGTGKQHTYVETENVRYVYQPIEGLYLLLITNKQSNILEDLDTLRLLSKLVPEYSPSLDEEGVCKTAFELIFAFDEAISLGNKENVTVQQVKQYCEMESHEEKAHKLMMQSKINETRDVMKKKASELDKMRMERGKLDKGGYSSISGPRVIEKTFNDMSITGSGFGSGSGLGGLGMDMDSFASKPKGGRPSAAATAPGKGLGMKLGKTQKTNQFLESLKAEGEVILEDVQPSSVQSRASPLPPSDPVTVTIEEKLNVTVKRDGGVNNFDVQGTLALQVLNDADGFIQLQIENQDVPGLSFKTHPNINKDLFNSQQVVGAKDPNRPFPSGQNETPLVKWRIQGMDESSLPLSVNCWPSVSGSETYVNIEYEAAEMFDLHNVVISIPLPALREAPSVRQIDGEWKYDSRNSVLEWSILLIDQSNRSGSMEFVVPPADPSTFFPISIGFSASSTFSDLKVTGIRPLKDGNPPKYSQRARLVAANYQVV

GST-Delta-COP2 (rice) = molecular target: T3, GST-Delta-COP2 (rice) (UniProt Q0DJ99); test: pull-down; GST fusion proteins immobilised on glutathione-sepharose beads (GST binding resin), incubated with purified MBP-SPL35; immunoblot with anti-MBP and anti-GST; both purified
T3 sequence: T1 sequence

GST-Delta-COP1 (rice) = molecular target: T4, GST-Delta-COP1 (rice) (UniProt Q0DJA0); test: as above
T4 sequence: T2 sequence

CLUC-Delta-COP2 (rice) = molecular target: T5, CLUC-Delta-COP2 (rice) (UniProt Q0DJ99); test: split reporter; firefly LUC complementation imaging (LCI): NLUC-SPL35 with CLUC fusions in N. benthamiana leaf epidermis cells, 48 h post-infiltration
T5 sequence: T1 sequence

CLUC-Delta-COP1 (rice) = molecular target: T6, CLUC-Delta-COP1 (rice) (UniProt Q0DJA0); test: as above
T6 sequence: T2 sequence

[1] = molecular target: T7, Delta-COP1 full-length, bait fusion in pGBKT7 (rice) (UniProt Q0DJA0); test: two-hybrid; SPL35 full-length and fragments as preys in pGADT7, ubiquitin, OsUBC5a, Delta-COP1 and Delta-COP2 as baits in pGBKT7; yeast AH109; SD/-His-Ade-Leu-Trp with 3 mM 3-AT, 30 °C
T7 sequence: T2 sequence

[2] = molecular target: T8, Delta-COP2 full-length, bait fusion in pGBKT7 (rice) (UniProt Q0DJ99); test: as above
T8 sequence: T1 sequence

Substance | binding [1] | binding [2] | other results
CeYFP-SPL35 (rice) |  |  | binding (NeYFP-Delta-COP2 (rice)): binds; binding (NeYFP-Delta-COP1 (rice)): binds
MBP-SPL35 (rice) |  |  | binding (GST-Delta-COP2 (rice)): binds; binding (GST-Delta-COP1 (rice)): binds
NLUC-SPL35 (rice) |  |  | binding (CLUC-Delta-COP2 (rice)): binds; binding (CLUC-Delta-COP1 (rice)): binds
SPL35 full-length, prey (AD) fusion in pGADT7 (rice) | binds | binds | 

Continued, in another order:

binding [1] | binding [2] | Substance | other results
binds | binds | SPL35 CUE domain, prey (AD) fusion in pGADT7 (rice) (domain or fragment) | 
binds | binds | SPL35 N-terminal region lacking the CUE domain, prey (AD) fusion in pGADT7 (rice) (domain or fragment) | 
